In paper PMC7520122:
No constants are given. Whether binding was seen depends on the method and setting. Binding seen in cells or lysates may run through a third protein. Some entries that bind do so weakly or less than the wild type. Sequences can lack the tags named with a protein.

What was measured:
[1] = molecular target: T1, GST-PAP1 (PRODUCTION OF ANTHOCYANIN PIGMENT 1) (Arabidopsis thaliana) (UniProt Q9FE25); assay: pull-down; UMEPPI: 500 µL crude soluble fraction of the GL1 Hishot complex with 100 µL purified GST, GST-GL3 or GST-PAP1 (36.6 µM) and glutathione sepharose 4B, 4°C overnight, washed three times with PBS; co-precipitated GL1 detected through its mRNA by semi-qRT-PCR and qRT-PCR; only the target purified
T1 sequence: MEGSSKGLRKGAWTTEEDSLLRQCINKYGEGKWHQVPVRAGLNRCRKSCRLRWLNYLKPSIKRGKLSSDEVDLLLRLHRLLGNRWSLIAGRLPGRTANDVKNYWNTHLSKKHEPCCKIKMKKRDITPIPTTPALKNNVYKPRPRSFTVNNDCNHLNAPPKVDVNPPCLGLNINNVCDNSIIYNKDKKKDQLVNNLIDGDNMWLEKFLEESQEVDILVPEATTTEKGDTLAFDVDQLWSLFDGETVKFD

[2] = molecular target: T2, GST-GL3 (GLABRA3) (Arabidopsis thaliana) (UniProt Q9FN69); assay: as above
T2 sequence: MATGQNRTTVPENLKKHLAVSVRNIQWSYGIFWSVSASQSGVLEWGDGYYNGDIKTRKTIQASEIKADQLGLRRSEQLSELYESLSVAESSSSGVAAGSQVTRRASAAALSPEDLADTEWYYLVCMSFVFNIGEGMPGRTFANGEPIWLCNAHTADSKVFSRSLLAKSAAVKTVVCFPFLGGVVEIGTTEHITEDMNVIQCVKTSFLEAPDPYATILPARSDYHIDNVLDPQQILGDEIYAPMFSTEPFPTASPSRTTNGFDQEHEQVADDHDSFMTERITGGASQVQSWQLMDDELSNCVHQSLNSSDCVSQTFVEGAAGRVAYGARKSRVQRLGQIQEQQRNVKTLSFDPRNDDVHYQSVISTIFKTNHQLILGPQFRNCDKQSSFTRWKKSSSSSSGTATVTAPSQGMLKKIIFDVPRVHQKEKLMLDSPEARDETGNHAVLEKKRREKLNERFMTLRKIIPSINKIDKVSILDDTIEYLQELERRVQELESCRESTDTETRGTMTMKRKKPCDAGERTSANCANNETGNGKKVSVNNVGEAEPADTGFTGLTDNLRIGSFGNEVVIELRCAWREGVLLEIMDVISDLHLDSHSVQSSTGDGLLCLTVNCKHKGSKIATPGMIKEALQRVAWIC

B1: GL1 Hishot complex (histidine-tagged GLABROUS1 associated with its own shot47-tagged mRNA) (protein, UniProt P27900 1-228)
chain: MRIRRRDEKENQEYKKGLWTVEEDNILMDYVLNHGTGQWNRIVRKTGLKRCGKSCRLRWMNYLSPNVNKGNFTEQEEDLIIRLHKLLGNRWSLIAKRVPGRTDNQVKNYWNTHLSKKLVGDYSSAVKTTGEDDDSPPSLFITAATPSSCHHQQENIYENIAKSFNGVVSASYEDKPKQELAQKDVLMATTNDPSHYYGNNALWVHDDDFELSSLVMMNFASGDVEYCL
In the case of B1, the binding [1] is reported as “binds” and the binding [2] is reported as “binds”.
